Amino acid sequences for entries named in this document (tags omitted). Residues count along the entry.
UniProt Q9P0T7, residues 21-183: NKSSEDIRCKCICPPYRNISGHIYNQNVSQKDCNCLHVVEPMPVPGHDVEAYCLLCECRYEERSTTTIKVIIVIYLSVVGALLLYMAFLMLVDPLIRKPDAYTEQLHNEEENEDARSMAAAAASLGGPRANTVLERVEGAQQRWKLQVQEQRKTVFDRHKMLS

In PMC12222028:

Tests used:
[1] = target: T1, WT HA–TMEM230 (human) (UniProt Q96A57); experiment: affinity purification with mass spectrometry; TMEM230 IPs from H9 TMEM230-/- iNeurons with or without lentiviral expression of WT and variant HA-TMEM230; 0.5% DDM extract; TMT-MS
T1 sequence: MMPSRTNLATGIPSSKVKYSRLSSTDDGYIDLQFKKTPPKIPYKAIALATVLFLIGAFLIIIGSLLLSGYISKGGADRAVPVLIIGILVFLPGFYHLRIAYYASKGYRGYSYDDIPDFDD

[2] = target: T2, HA-TMEM230(Y29C) (human) (UniProt Q96A57); experiment: as above
T2 sequence: T1 sequence with Y29C

[3] = target: T3, Wild-type (WT) TMEM230 (human (endogenous in H9-derived iNeurons)) (UniProt Q96A57); experiment: affinity purification with mass spectrometry; anti-TMEM230 immunocomplexes from WT H9 iNeurons against H9 TMEM230-/- iNeurons; 0.5% DDM extract; TMT-MS
T3 sequence: T1 sequence

[4] = target: TMEM9–HA (human) (UniProt Q9P0T7); experiment: affinity purification with mass spectrometry; anti-HA IPs from TMEM9-/- iNeurons (day 21) with or without lentiviral expression of TMEM9-HA; 0.5% DDM extract; TMT-MS

B2: ATP8A1 (protein, UniProt Q9Y2Q0 1-1164)
chain: MPTMRRTVSEIRSRAEGYEKTDDVSEKTSLADQEEVRTIFINQPQLTKFCNNHVSTAKYNIITFLPRFLYSQFRRAANSFFLFIALLQQIPDVSPTGRYTTLVPLLFILAVAAIKEIIEDIKRHKADNAVNKKQTQVLRNGAWEIVHWEKVAVGEIVKVTNGEHLPADLISLSSSEPQAMCYIETSNLDGETNLKIRQGLPATSDIKDVDSLMRISGRIECESPNRHLYDFVGNIRLDGHGTVPLGADQILLRGAQLRNTQWVHGIVVYTGHDTKLMQNSTSPPLKLSNVERITNVQILILFCILIAMSLVCSVGSAIWNRRHSGKDWYLNLNYGGASNFGLNFLTFIILFNNLIPISLLVTLEVVKFTQAYFINWDLDMHYEPTDTAAMARTSNLNEELGQVKYIFSDKTGTLTCNVMQFKKCTIAGVAYGHVPEPEDYGCSPDEWQNSQFGDEKTFSDSSLLENLQNNHPTAPIICEFLTMMAVCHTAVPEREGDKIIYQAASPDEGALVRAAKQLNFVFTGRTPDSVIIDSLGQEERYELLNVLEFTSARKRMSVIVRTPSGKLRLYCKGADTVIYDRLAETSKYKEITLKHLEQFATEGLRTLCFAVAEISESDFQEWRAVYQRASTSVQNRLLKLEESYELIEKNLQLLGATAIEDKLQDQVPETIETLMKADIKIWILTGDKQETAINIGHSCKLLKKNMGMIVINEGSLDGTRETLSRHCTTLGDALRKENDFALIIDGKTLKYALTFGVRQYFLDLALSCKAVICCRVSPLQKSEVVEMVKKQVKVVTLAIGDGANDVSMIQTAHVGVGISGNEGLQAANSSDYSIAQFKYLKNLLMIHGAWNYNRVSKCILYCFYKNIVLYIIEIWFAFVNGFSGQILFERWCIGLYNVMFTAMPPLTLGIFERSCRKENMLKYPELYKTSQNALDFNTKVFWVHCLNGLFHSVILFWFPLKALQYGTAFGNGKTSDYLLLGNFVYTFVVITVCLKAGLETSYWTWFSHIAIWGSIALWVVFFGIYSSLWPAIPMAPDMSGEAAMLFSSGVFWMGLLFIPVASLLLDVVYKVIKRTAFKTLVDEVQELEAKSQDPGAVVLGKSLTERAQLLKNVFKKNHVNLYRSESLQQNLLHGYAFSQDENGIVSQSEVIRAYDTTKQRPDEW
- binding [1]: binds
- binding [2]: binds
- binding [3]: binds

B3: ATP8A2 (protein, UniProt Q9NTI2 1-1188)
chain: MLNGAGLDKALKMSLPRRSRIRSSVGPVRSSLGYKKAEDEMSRATSVGDQLEAPARTIYLNQPHLNKFRDNQISTAKYSVLTFLPRFLYEQIRRAANAFFLFIALLQQIPDVSPTGRYTTLVPLIIILTIAGIKEIVEDFKRHKADNAVNKKKTIVLRNGMWHTIMWKEVAVGDIVKVVNGQYLPADVVLLSSSEPQAMCYVETANLDGETNLKIRQGLSHTADMQTREVLMKLSGTIECEGPNRHLYDFTGNLNLDGKSLVALGPDQILLRGTQLRNTQWVFGIVVYTGHDTKLMQNSTKAPLKRSNVEKVTNVQILVLFGILLVMALVSSAGALYWNRSHGEKNWYIKKMDTTSDNFGYNLLTFIILYNNLIPISLLVTLEVVKYTQALFINWDTDMYYIGNDTPAMARTSNLNEELGQVKYLFSDKTGTLTCNIMNFKKCSIAGVTYGHFPELAREPSSDDFCRMPPPCSDSCDFDDPRLLKNIEDRHPTAPCIQEFLTLLAVCHTVVPEKDGDNIIYQASSPDEAALVKGAKKLGFVFTARTPFSVIIEAMGQEQTFGILNVLEFSSDRKRMSVIVRTPSGRLRLYCKGADNVIFERLSKDSKYMEETLCHLEYFATEGLRTLCVAYADLSENEYEEWLKVYQEASTILKDRAQRLEECYEIIEKNLLLLGATAIEDRLQAGVPETIATLLKAEIKIWVLTGDKQETAINIGYSCRLVSQNMALILLKEDSLDATRAAITQHCTDLGNLLGKENDVALIIDGHTLKYALSFEVRRSFLDLALSCKAVICCRVSPLQKSEIVDVVKKRVKAITLAIGDGANDVGMIQTAHVGVGISGNEGMQATNNSDYAIAQFSYLEKLLLVHGAWSYNRVTKCILYCFYKNVVLYIIELWFAFVNGFSGQILFERWCIGLYNVIFTALPPFTLGIFERSCTQESMLRFPQLYKITQNGEGFNTKVFWGHCINALVHSLILFWFPMKALEHDTVLTSGHATDYLFVGNIVYTYVVVTVCLKAGLETTAWTKFSHLAVWGSMLTWLVFFGIYSTIWPTIPIAPDMRGQATMVLSSAHFWLGLFLVPTACLIEDVAWRAAKHTCKKTLLEEVQELETKSRVLGKAVLRDSNGKRLNERDRLIKRLGRKTPPTLFRGSSLQQGVPHGYAFSQEEHGAVSQEEVIRAYDTTKKKSRKK
- binding [1]: binds
- binding [2]: binds
- binding [3]: binds

B5: CLCN5 (protein, UniProt P51795 1-816)
chain: MAMWQGAMDNRGFQQGSFSSFQNSSSDEDLMDIPATAMDFSMRDDVPPLDREVGEDKSYNGGGIGSSNRIMDFLEEPIPGVGTYDDFNTIDWVREKSRDRDRHREITNKSKESTWALIHSVSDAFSGWLLMLLIGLLSGSLAGLIDISAHWMTDLKEGICTGGFWFNHEHCCWNSEHVTFEERDKCPEWNSWSQLIISTDEGAFAYIVNYFMYVLWALLFAFLAVSLVKVFAPYACGSGIPEIKTILSGFIIRGYLGKWTLVIKTITLVLAVSSGLSLGKEGPLVHVACCCGNILCHCFNKYRKNEAKRREVLSAAAAAGVSVAFGAPIGGVLFSLEEVSYYFPLKTLWRSFFAALVAAFTLRSINPFGNSRLVLFYVEFHTPWHLFELVPFILLGIFGGLWGALFIRTNIAWCRKRKTTQLGKYPVIEVLVVTAITAILAFPNEYTRMSTSELISELFNDCGLLDSSKLCDYENRFNTSKGGELPDRPAGVGVYSAMWQLALTLILKIVITIFTFGMKIPSGLFIPSMAVGAIAGRLLGVGMEQLAYYHQEWTVFNSWCSQGADCITPGLYAMVGAAACLGGVTRMTVSLVVIMFELTGGLEYIVPLMAAAMTSKWVADALGREGIYDAHIRLNGYPFLEAKEEFAHKTLAMDVMKPRRNDPLLTVLTQDSMTVEDVETIISETTYSGFPVVVSRESQRLVGFVLRRDLIISIENARKKQDGVVSTSIIYFTEHSPPLPPYTPPTLKLRNILDLSPFTVTDLTPMEIVVDIFRKLGLRQCLVTHNGRLLGIITKKDVLKHIAQMANQDPDSILFN
- binding [4]: binds

Other lines, results leading:

- binding [1]: binds
- binding [2]: binds
- binding [3]: binds
B1: ATP11B (protein, UniProt Q9Y2G3 1-1177)
chain: MWRWIRQQLGFDPPHQSDTRTIYVANRFPQNGLYTPQKFIDNRIISSKYTVWNFVPKNLFEQFRRVANFYFLIIFLVQLMIDTPTSPVTSGLPLFFVITVTAIKQGYEDWLRHNSDNEVNGAPVYVVRSGGLVKTRSKNIRVGDIVRIAKDEIFPADLVLLSSDRLDGSCHVTTASLDGETNLKTHVAVPETALLQTVANLDTLVAVIECQQPEADLYRFMGRMIITQQMEEIVRPLGPESLLLRGARLKNTKEIFGVAVYTGMETKMALNYKSKSQKRSAVEKSMNTFLIIYLVILISEAVISTILKYTWQAEEKWDEPWYNQKTEHQRNSSKILRFISDFLAFLVLYNFIIPISLYVTVEMQKFLGSFFIGWDLDLYHEESDQKAQVNTSDLNEELGQVEYVFTDKTGTLTENEMQFRECSINGMKYQEINGRLVPEGPTPDSSEGNLSYLSSLSHLNNLSHLTTSSSFRTSPENETELIKEHDLFFKAVSLCHTVQISNVQTDCTGDGPWQSNLAPSQLEYYASSPDEKALVEAAARIGIVFIGNSEETMEVKTLGKLERYKLLHILEFDSDRRRMSVIVQAPSGEKLLFAKGAESSILPKCIGGEIEKTRIHVDEFALKGLRTLCIAYRKFTSKEYEEIDKRIFEARTALQQREEKLAAVFQFIEKDLILLGATAVEDRLQDKVRETIEALRMAGIKVWVLTGDKHETAVSVSLSCGHFHRTMNILELINQKSDSECAEQLRQLARRITEDHVIQHGLVVDGTSLSLALREHEKLFMEVCRNCSAVLCCRMAPLQKAKVIRLIKISPEKPITLAVGDGANDVSMIQEAHVGIGIMGKEGRQAARNSDYAIARFKFLSKLLFVHGHFYYIRIATLVQYFFYKNVCFITPQFLYQFYCLFSQQTLYDSVYLTLYNICFTSLPILIYSLLEQHVDPHVLQNKPTLYRDISKNRLLSIKTFLYWTILGFSHAFIFFFGSYLLIGKDTSLLGNGQMFGNWTFGTLVFTVMVITVTVKMALETHFWTWINHLVTWGSIIFYFVFSLFYGGILWPFLGSQNMYFVFIQLLSSGSAWFAIILMVVTCLFLDIIKKVFDRHLHPTSTEKAQLTETNAGIKCLDSMCCFPEGEAACASVGRMLERVIGRCSPTHISRSWSASDPFYTNDRSILTLSTMDSSTC

- binding [1]: binds
- binding [2]: binds
- binding [3]: binds
B4: TMEM30A (protein, UniProt Q9NV96 1-361)
chain: MAMNYNAKDEVDGGPPCAPGGTAKTRRPDNTAFKQQRLPAWQPILTAGTVLPIFFIIGLIFIPIGIGIFVTSNNIREIEIDYTGTEPSSPCNKCLSPDVTPCFCTINFTLEKSFEGNVFMYYGLSNFYQNHRRYVKSRDDSQLNGDSSALLNPSKECEPYRRNEDKPIAPCGAIANSMFNDTLELFLIGNDSYPIPIALKKKGIAWWTDKNVKFRNPPGGDNLEERFKGTTKPVNWLKPVYMLDSDPDNNGFINEDFIVWMRTAALPTFRKLYRLIERKSDLHPTLPAGRYSLNVTYNYPVHYFDGRKRMILSTISWMGGKNPFLGIAYIAVGSISFLLGVVLLVINHKYRNSSNTADITI

- binding [4]: binds
B6: TMEM9B (protein, UniProt Q9NQ34 34-198)
chain: AKNFEDVRCKCICPPYKENSGHIYNKNISQKDCDCLHVVEPMPVRGPDVEAYCLRCECKYEERSSVTIKVTIIIYLSILGLLLLYMVYLTLVEPILKRRLFGHAQLIQSDDDIGDHQPFANAHDVLARSRSRANVLNKVEYAQQRWKLQVQEQRKSVFDRHVVLS

Changes are numbered by the printed parent chain. No constants are given. Whether binding was seen depends on the method and setting. In cells and extracts the contact can be indirect. These calls come from enrichment with a bait or labelling near it, and not all partners need be listed. For some assays here: Sequences can lack the tags named with a protein. Each block holds one binder with its values, some of them ahead of it.
